In patent US20080051424A1 (priority 2004, published 2008):

Assay: peptide synthesis
Conditions: late stage modification step, trifluoroacetate

N^2.1-[1-Methyl-3-oxobut-1-en-1-yl]-N^7.ω,N^7.ω′-(pent[2]en[2]yl[4]ylidene)lysobactin
step yield: 54% of th.
